Assay results as given in publication PMC7785878.

Target: T1, ANXA6 fused to the C-terminal of yellow fluorescent protein (pEYFP-ANXA6-HA) (UniProt P08133)
T1 sequence: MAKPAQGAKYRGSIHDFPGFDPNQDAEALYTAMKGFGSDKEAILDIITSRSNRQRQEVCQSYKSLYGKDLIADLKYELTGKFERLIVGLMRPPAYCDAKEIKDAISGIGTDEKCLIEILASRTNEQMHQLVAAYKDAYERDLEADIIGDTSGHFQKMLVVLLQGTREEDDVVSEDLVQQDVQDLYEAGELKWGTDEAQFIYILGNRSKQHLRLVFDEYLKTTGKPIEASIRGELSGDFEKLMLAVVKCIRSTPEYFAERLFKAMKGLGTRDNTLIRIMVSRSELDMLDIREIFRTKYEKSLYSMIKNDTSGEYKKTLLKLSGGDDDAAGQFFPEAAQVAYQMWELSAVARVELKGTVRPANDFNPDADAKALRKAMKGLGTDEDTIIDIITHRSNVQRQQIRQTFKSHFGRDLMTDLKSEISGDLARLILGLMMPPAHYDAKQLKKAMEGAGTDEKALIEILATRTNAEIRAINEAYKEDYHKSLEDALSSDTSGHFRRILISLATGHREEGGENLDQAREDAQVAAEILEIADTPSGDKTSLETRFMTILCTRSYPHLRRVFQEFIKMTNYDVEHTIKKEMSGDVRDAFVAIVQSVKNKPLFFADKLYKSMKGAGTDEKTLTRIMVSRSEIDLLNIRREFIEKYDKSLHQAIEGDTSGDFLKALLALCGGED
Test: co-IP

Substance | binding
EspF C-terminal (74-248 aa) in pEGFP-N1 with flag tag (pEGFP-EspF/C-flag) (Enterohemorrhagic E. coli O157:H7 EDL933) (domain or fragment) | binds
EspF N-terminal (1-73 aa) in pEGFP-N1 with flag tag (pEGFP-EspF/N-flag) (Enterohemorrhagic E. coli O157:H7 EDL933) (domain or fragment) | no binding

These are yes or no findings as the source states them, for the method shown. Binding seen in cells or lysates may run through a third protein. A result given as binding can be weak or reduced; the word gives no strength. Sequences can lack the tags named with a protein.
